Results deposited as PubChem BioAssay AID1508597 (Cure First, 2020)
Screen: 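Knock-downs altering ovarian cancer cell survival with or without PARP inhibitor rucaparib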 (primary screen). System: human ovarian carcinoma lines grown from tumours: OCI-P5x (papillary serous) and OCI-C5x (clear cell). Reagent: siRNA pool against human genes, 1.25 pmol siRNA per well. Timing: 72 h or 96 h, depending on the cell culture. Challenge: rucaparib 20 µM (about IC30) or vehicle, present until read-out. Rucaparib or vehicle: Vehicle. Cell line: OCI-P5x (serous). Detection: 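Luminescent ATP-based viability assay read 72 or 96 h after transfection, depending on culture, given as normalised percent viability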. Direction: viability, normalised: higher = more viable cells remaining. Hit rule: 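Active when normalised viability falls below 80 percent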. Meaning of the calls: active = viability under 80%; inactive = viability 80% or more.
Shown is a random part of the about 2,100 reagents, under one of the conditions tested. 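Calls flag viability under 80% in either arm, not effects specific to rucaparib; the reference for percent is not stated.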 Entries without a mark were called inactive. The record does not give: the 100% reference.

gene	technical replicate	viability, normalised (%)
APOA2	1	29.2 (active)
APOA2	2	27.3 (active)
APOA2	3	43.7 (active)
SAP130	1	69.3 (active)
SAP130	2	83.9
SAP130	3	88.7
GMEB1	1	53.8 (active)
GMEB1	2	55.2 (active)
GMEB1	3	52.4 (active)
PLCG2	1	79.6 (active)
PLCG2	2	84.4
PLCG2	3	84.9
HMGN5	1	58.8 (active)
HMGN5	2	78.7 (active)
HMGN5	3	80.4
TEK	1	80.9
TEK	2	81.5
TEK	3	61.5 (active)
NRCAM	1	44.4 (active)
NRCAM	2	50.2 (active)
NRCAM	3	49.1 (active)
AKAP13	1	83.3
AKAP13	2	94.6
AKAP13	3	90.1
KDM4C	1	59 (active)
KDM4C	2	69.1 (active)
KDM4C	3	69.1 (active)
BRSK1	1	54.8 (active)
BRSK1	2	65.6 (active)
BRSK1	3	62.6 (active)
SMCHD1	1	62.2 (active)
SMCHD1	2	59.4 (active)
SMCHD1	3	78.2 (active)
FEN1	1	79.2 (active)
FEN1	2	81.1
FEN1	3	75.7 (active)
KIF11	1	31.6 (active)
KIF11	2	42.1 (active)
KIF11	3	33.3 (active)

Ordered by “viability, normalised (%)” (highest first): 6 of the entries above
gene	technical replicate	viability, normalised (%)
FEN1	2	81.1
FEN1	1	79.2 (active)
SMCHD1	3	78.2 (active)
BRSK1	3	62.6 (active)
SMCHD1	1	62.2 (active)
SMCHD1	2	59.4 (active)
